Out of some 340,000 compounds screened, about 4,500 (1.3%) were called active. The inconclusive results got no clear call from the source; some entries with a clear call stand among them for comparison. The call rests on the fitted dose curve; in most records, active means well fitted inhibition curve with a large enough effect; inconclusive means small, poorly fitted or top-dose-only effect, or another doubt; inactive means no such curve, though single readings can be large or run the other way. Potencies of inconclusive entries are doubtful fits and often do not repeat.
These compounds were tested against DNA polymerase beta (Homo sapiens) (UniProt P06746) (assay: qHTS Assay for Inhibitors of DNA Polymerase Beta). Conditions: Pol beta primer extension/strand displacement, fluorescence kinetic; activity change, negative = inhibition: at 114 µM (top of the series).
How it was run: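 Pol beta (10 nM) was preincubated with compound for 15 min at room temperature. The reaction was then started with 50 nM substrate and read immediately and after a further 10 min at room temperature.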
On the % scale 0 is the no-effect control and ±100 the full control effect; potency means the concentration at half of the fitted maximal effect.

Potency, active:
Cc1cc(=O)n(CC(=O)NC(C)c2ccccc2)c2c1c(C)nn2C (centres undefined) 31.6 µM
Cc1ccc(Nc2nc(N)nc(CSc3nnnn3-c3ccccc3)n2)cc1 22.4 µM
COc1ccc(CCNC(=O)Cn2nc(C)c3c(C)n(-c4ccc(C)cc4)nc3c2=O)c(OC)c1 35.5 µM
O=C(N/N=C/c1ccc(O)c(O)c1)C1c2ccccc2Oc2ccccc21 7.08 µM
O=C(CSc1ccccn1)Nc1ccc2c(c1)C(=O)c1ccccc1C2=O 8.91 µM
COC(=O)CCCC1=CC2=CC(=O)C(C)(OC(=O)c3cccs3)C(=O)C2=CN1Cc1ccc2c(c1)OCO2 (centres undefined) 50.1 µM

Potency, inconclusive:
Cc1cc(C(F)(F)F)nn1CC(=O)NCc1ccccc1 0.141 µM [inhibitor, full curve, poor fit]
Cn1c(-c2ccc(F)cc2)cnc1NCc1ccc(C#N)cc1 0.141 µM [inhibitor, full curve, poor fit]
CCC1Sc2ccc(S(=O)(=O)CCC(=O)Nc3cccc(Br)c3)cc2NC1=O (centres undefined) 89.1 µM [inhibitor, single point]
COc1ccc(Cl)cc1S(=O)(=O)N1CCCC1 0.158 µM [inhibitor, full curve]
N/C(=N\N=C\c1ccc2c(c1)OCO2)SC1CC(=O)N(c2ccc(C(=O)O)cc2)C1=O (centres undefined) 14.1 µM [inhibitor, full curve, poor fit]
Cn1c2ccccc2c(=O)c2c(=O)n(Cc3ccco3)c(-c3ccc(F)cc3)nc21 25.1 µM [inhibitor, partial curve]
O=C1CCCc2ccccc2N1Cc1ccc(Cl)cc1Cl 89.1 µM [inhibitor, single point]
COc1ccc(C(=O)Nc2ccc(NC(=O)c3cccc(F)c3)cn2)cc1 44.7 µM [inhibitor, partial curve, poor fit]
CCC(c1nnnn1Cc1ccco1)N(Cc1cc2cc(OC)ccc2[nH]c1=O)C1CCCCC1 (centres undefined) 22.4 µM [inhibitor, full curve]
CC(Oc1ccc2ccc(=O)oc2c1)C(=O)NC(Cc1c[nH]c2ccc(O)cc12)C(=O)O (centres undefined) 14.1 µM [inhibitor, full curve, poor fit]
Cc1ccc(C(=O)Nc2ccnc(-c3ccncc3)n2)cc1 0.251 µM [inhibitor, full curve, poor fit]
CCCOc1ccc(C(C)=O)cc1CSc1nc(O)cc(=O)[nH]1 17.8 µM [inhibitor, full curve, poor fit]
CCn1c(CC(=O)Nc2ccccc2C)nnc1SCC(=O)NC1CCCC1 100 µM [inhibitor, single point]
CCOc1cc(/C=N/NC(=O)c2ccc3c(c2)OCCO3)cc(Br)c1O 79.4 µM [inhibitor, single point]
CC(C)/C(=N\NC(=O)Nc1ccccc1)c1ccccc1 0.501 µM [inhibitor, full curve, poor fit]
O=C(CSc1ccc(F)cc1)Nc1ccc(Br)cc1 79.4 µM [inhibitor, partial curve, poor fit]
COc1cc(OC)c(NC(=O)Cn2cnc3nc4c(cc3c2=O)CCCC4)cc1Cl 20 µM [inhibitor, single point]
CC(C)(CO)NC(=S)NCc1ccco1 50.1 µM [inhibitor, partial curve, poor fit]
COc1ccc(NC(=O)CCC(=O)NCc2ccco2)c([N+](=O)[O-])c1 3.16 µM [inhibitor, single point]
C=CC1=C(C(=O)O)N2C(=O)C(NC(=O)Cc3ccccc3)C2SC1 (centres undefined) 20 µM [inhibitor, partial curve]
O=C(NC1CC2CCCC(C1)N2C(=O)NC1CCCCC1)c1ccc(F)cc1 (centres undefined) 89.1 µM [inhibitor, single point]
CC1=C(C#N)C(c2ccc3ncccc3c2)C(C#N)=C(C)N1 89.1 µM [inhibitor, single point]
Cc1sc2ncnc(N=Nc3c(O)[nH]c4ccccc34)c2c1C 56.2 µM [inhibitor, partial curve]
CCN(CC)C(=O)COc1ccc(-c2nnc(Nc3ccc(OC)c(C(=O)NC)c3)c3ccccc23)cc1 56.2 µM [inhibitor, single point]

Sorted by number of heavy atoms (smallest number first): 3 of the compounds above.
Potency, inconclusive:
CC(C)(CO)NC(=S)NCc1ccco1 50.1 µM [inhibitor, partial curve, poor fit]
O=C1CCCc2ccccc2N1Cc1ccc(Cl)cc1Cl 89.1 µM [inhibitor, single point]
CCC1Sc2ccc(S(=O)(=O)CCC(=O)Nc3cccc(Br)c3)cc2NC1=O (centres undefined) 89.1 µM [inhibitor, single point]

Following part:

Potency, inactive:
O=C(Nc1ccccc1)N1CCCC2CCCCC21 (centres undefined)
N=S(=O)(O)Cc1noc2ccccc12
CC(=O)c1c(COC(=O)c2ccncc2)nc2ccccc2[n+]1[O-]
Cc1cnc2c(c1SCC(=O)NCc1ccccc1Cl)c(=O)n(C)c(=O)n2C
O=S(=O)(Nc1ccc(-c2nc3cccnc3s2)cc1)c1ccc(Cl)s1
COc1cccc(C(=O)Nc2cccc(OCc3cc(=O)n4cccc(C)c4n3)c2)c1
COc1cc(OC)c(NC(=O)CCNS(=O)(=O)c2ccc3c(c2)CC(C)N3C(C)=O)cc1Cl (centres undefined)
CCN(CC(=O)Nc1ccc(S(N)(=O)=O)cc1)S(=O)(=O)c1cc(C)ccc1OC
CSc1ccc(CCNC(=O)C2CCN(c3ncnc4c3nc3n4CCCCC3)CC2)cc1
Cc1sc2ncn(CC(=O)N(C)c3cccc(C(F)(F)F)c3)c(=O)c2c1S(=O)(=O)N1CCN(c2ncccn2)CC1

Activity change, negative = inhibition, inconclusive:
Cc1csc(NC(=O)CSc2nnc(-c3cccnc3)o2)n1 -36.6% [inhibitor]
C[C@H](NC(=O)c1[nH]cnc1C(=O)Nc1ccc(Cl)cc1)C(=O)OC(C)(C)C -71.7% [inhibitor]
BrC(=C\c1ccccc1)/C=N/Nc1ccc2nncn2n1 -66.7% [inhibitor]
O=C(CSc1nc(NS(=O)(=O)c2ccccc2)cc(=O)[nH]1)Nc1cccc(C(F)(F)F)c1 -122% [inhibitor]

From PubChem BioAssay AID485314 (National Center for Advancing Translational Sciences (NCATS), 2010)
